According to patent publication US20050089858A1:
These are yes or no findings as the source states them, for the method shown. Binding seen in cells or lysates may run through a third protein. Some results given as binding are weak or reduced against the parent protein; the word gives no strength. Where a sequence is shown, tags or fusion partners need not be part of it.

Target: Salvador WW domain-GST construct (Drosophila Salvador residues 419-495 fused to GST) (Drosophila) [GST: P08515]
Experiment: GST pull-down: GST-Salvador(419-495) on glutathione-sepharose with 293T lysate expressing Myc-Warts, anti-Myc 9E10 immunoblot

B1: Myc-tagged Drosophila Warts protein (enzyme, not shown: small tags and cut ends)
chain: MHPAGEKRGGRPNDKYTAEALESIKQDLTRFEVQNNHRNNQNYTPLRYTATNGRNDALTPDYHHAKQPMEPPPSASPAPDVVIPPPPAIVGQPGAGSISVSGVGVGVVGVANGRVPKMMTALMPNKLIRKPSIERDTASSHYLRCSPALDSGAGSSRSDSPHSHHTHQPSSRTVGNPGGNGGFSPSPSGFSEVAPPAPPPRNPTASSAATPPPPVPPTSQAYVKRRSPALNNRPPAIAPPTQRGNSPVITQNGLKNPQQQLTQQLKSLNLYPGGGSGAVVEPPPPYLIQGGAGGAAPPPPPPSYTASMQSRQSPTQSQQSDYRKSPSSGIYSATSAGSPSPITVSLPPAPLAKPQPRVYQARSQQPIIMQSVKSTQVQKPVLQTAVAPQSPSSASASNSPVHVLAAPPSYPQKSAAVVQQQQQAAAAAHQQQHQHQQSKPATPTTPPLVGLNSKPNCLEPPSYAKSMQAKAATVVQQQQQQQQQQQVQQQQVQQQQQQQQQQLQALRVLQAQAQRERDQRERERDQQKLANGNPGRQMLPPPPYQSNNNNNSEIKPPSCNNNNIQISNSNLATTPPIPPAKYNNNSSNTGANSSGGSNGSTGTTASSSTSCKKIKHASPIPERKKISKEKEEERKEFRIRQYSPQAFKFFMEQHIENVIKSYRQRTYRKNQLEKEMHKVGLPDQTQIEMRKMLNQKESNYIRLKRAKMDKSMFVKLKPIGVGAFGEVTLVSKIDTSNHLYAMKTLRKADVLKRNQVAHVKAERDILAEADNNWVVKLYYSFQDKDNLYFVMDYIPGGDLMSLLIKLGIFEEELARFYIAEVTCAVDSVHKMGFIHRDIKPDNILIDRDGHIKLTDFGLCTGFRWTHNSKYYQENGNHSRQDSMEPWEEYSENGPKPTVLERRRMRDHQRVLAHSLVGTPNYIAPEVLERSGYTQLCDYWSVGVILYEMLVGQPPFLANSPLETQQKVINWEKTLHIPPQAELSREATDLIRRLCASADKRLGKSVDEVKSHDFFKGIDFADMRKQKAPYIPEIKHPTDTSNFDPVDPEKLRSNDSTMSSGDDVDQNDRTFHGFFEFTFRRFFDDKQPPDMTDDQAPVYV
  binding: binds
